# Values from PubChem BioAssay AID1053208 (Peter MacCallum Cancer Centre, 2014)
# Aim: 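Genes whose silencing cuts survival of bone tumour cells only with doxorubicin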 (primary screen)
# System: mouse osteosarcoma cells, early-passage culture from an engineered mouse model of fibroblastic bone tumour
# Knock-down reagent: siRNA pool against mouse genes, 40 nM
# Timing: about 120 h (48 h before drug, then 72 h with drug)
# Conditions: doxorubicin 100 nM for 72 h, roughly 30-40% inhibitory dose
# Detection: 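Viability read as ATP luminescence after 72 h of 100 nM doxorubicin or none, duplicate wells averaged, scaled to non-targeting siRNA, then expressed as robust z-scores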
# Reading the numbers: viability z-score with doxorubicin and doxorubicin viability vs non-targeting: higher = more viable cells under doxorubicin; viability z-score without drug: higher = more viable cells with knock-down alone; z-score of drug to no-drug ratio: higher = less drug sensitisation by knock-down
# Hit rule: 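Called active if knock-down leaves viability unchanged without drug (z within -2 to 2) but lowers it with doxorubicin (z at or under -2)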
# The whole screen tested about 17,000 reagents; shown is a part drawn at random. 788 of them (4.7%) were called active. 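Calls rest on z-score classes alone; an extra cut-off of viability at most 70% of control was not applied to them.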 The numbers tell different reagents against one gene apart.
Gene,reagent no.,combined z-score class,viability z-score with doxorubicin,viability z-score without drug,z-score of drug to no-drug ratio,doxorubicin viability vs non-targeting,activity call
Arfgef1 (ARF guanine nucleotide exchange factor 1),1,no change with or without drug,0.79,-0.17,1.01,1.01,inactive
"Gcnt3 (glucosaminyl (N-acetyl) transferase 3, mucin type)",1,no change with or without drug,-0.67,0,-0.56,0.88,inactive
Fem1c (fem 1 homolog c),1,no change with or without drug,-0.67,0.17,-0.67,0.88,inactive
Fem1c (fem 1 homolog c),2,no change with or without drug,0.67,0.51,0.45,1,inactive
Galt (galactose-1-phosphate uridyl transferase),1,no change with or without drug,0,-0.51,0.45,0.94,inactive
Mok (MOK protein kinase),1,no change with or without drug,-0.11,-1.18,0.9,0.93,inactive
Tcaf2 (TRPM8 channel-associated factor 2),1,no change with or without drug,1.35,-0.51,1.91,1.06,inactive
Sfxn2 (sideroflexin 2),1,low cell count without drug only,-1.24,-2.87,0.9,0.83,inactive
Zkscan17 (zinc finger with KRAB and SCAN domains 17),1,no change with or without drug,0.67,1.52,-0.22,1,inactive
Hrh2 (histamine receptor H2),1,no change with or without drug,0.9,-0.51,1.46,1.02,inactive
Tspan32 (tetraspanin 32),1,no change with or without drug,1.57,0.51,1.35,1.08,inactive
"Gnb1 (guanine nucleotide binding protein (G protein), beta 1)",1,no change with or without drug,1.12,1.18,0.45,1.04,inactive
Klhl22 (kelch-like 22),1,no change with or without drug,-0.56,-0.51,-0.11,0.89,inactive
"Tmem9b (TMEM9 domain family, member B)",1,no change with or without drug,-0.9,-0.84,-0.22,0.86,inactive
"Sec13 (SEC13 homolog, nuclear pore and COPII coat complex component)",1,no change with or without drug,0.34,-0.51,0.79,0.97,inactive
Fzd1 (frizzled class receptor 1),1,no change with or without drug,1.91,1.52,1.01,1.11,inactive
Ankrd49 (ankyrin repeat domain 49),1,no change with or without drug,0.22,-0.17,0.45,0.96,inactive
Eftud2 (elongation factor Tu GTP binding domain containing 2),1,low cell count with and without drug,-6.74,-4.55,-5.4,0.34,inactive
Cyb5r4 (cytochrome b5 reductase 4),1,no change with or without drug,0.45,-1.18,1.46,0.98,inactive
Mmp21 (matrix metallopeptidase 21),1,no change with or without drug,0.56,1.52,-0.34,0.99,inactive
BC024139 (cDNA sequence BC024139),1,no change with or without drug,-1.01,-1.18,-0.11,0.85,inactive
Agxt (alanine-glyoxylate aminotransferase),1,no change with or without drug,0.45,-0.51,1.01,0.98,inactive
Stard5 (StAR related lipid transfer domain containing 5),1,no change with or without drug,1.35,1.52,0.45,1.06,inactive
Bnip3 (BCL2/adenovirus E1B interacting protein 3),1,high cell count with and without drug,2.47,2.02,1.12,1.16,inactive
Ferd3l (Fer3 like bHLH transcription factor),1,no change with or without drug,0.56,1.01,0,0.99,inactive
Keg1 (kidney expressed gene 1),1,no change with or without drug,-0.67,-0.17,-0.45,0.88,inactive
Rbm12b1 (RNA binding motif protein 12 B1),1,no change with or without drug,0.67,0.67,0.34,1,inactive
Erv3 (endogenous retroviral sequence 3),1,no change with or without drug,0.9,0.67,0.56,1.02,inactive
Polr1d (polymerase (RNA) I polypeptide D),1,no change with or without drug,0.22,-0.51,0.67,0.96,inactive
"Acap1 (ArfGAP with coiled-coil, ankyrin repeat and PH domains 1)",1,no change with or without drug,-0.45,-0.34,-0.11,0.9,inactive
Zfp593 (zinc finger protein 593),1,no change with or without drug,-1.12,-0.84,-0.56,0.84,inactive
Cenpx (centromere protein X),1,no change with or without drug,0,0.67,-0.34,0.94,inactive
Rhoq (ras homolog family member Q),1,no change with or without drug,0,1.69,-0.9,0.94,inactive
Plekha7 (pleckstrin homology domain containing A7),1,no change with or without drug,-0.11,0.17,-0.11,0.93,inactive
Ccdc198 (coiled-coil domain containing 198),1,high cell count without drug only,1.12,3.04,-0.67,1.04,inactive
Ddit4l (DNA-damage-inducible transcript 4-like),1,high cell count without drug only,1.46,2.53,-0.11,1.07,inactive
Hjv (hemojuvelin BMP co-receptor),1,no change with or without drug,-1.35,-1.52,-0.34,0.82,inactive
Cntnap2 (contactin associated protein-like 2),1,no change with or without drug,0,0.67,-0.34,0.94,inactive
Cds1 (CDP-diacylglycerol synthase 1),1,no change with or without drug,-1.69,-1.18,-0.9,0.79,inactive
"Ap3s1 (adaptor-related protein complex 3, sigma 1 subunit)",1,no change with or without drug,-0.22,-0.67,0.34,0.92,inactive
Klhl7 (kelch-like 7),1,no change with or without drug,-0.67,1.01,-1.24,0.88,inactive
Vmn1r11 (vomeronasal 1 receptor 11),1,low cell count with doxorubicin only,-2.47,-0.84,-2.02,0.72,active
"Col4a5 (collagen, type IV, alpha 5)",1,no change with or without drug,1.57,1.69,0.56,1.08,inactive
"Parp2 (poly (ADP-ribose) polymerase family, member 2)",1,high cell count with doxorubicin only,2.25,0,2.47,1.14,inactive
Cngb1 (cyclic nucleotide gated channel beta 1),1,low cell count with doxorubicin only,-2.02,-0.51,-1.69,0.76,active
Cngb1 (cyclic nucleotide gated channel beta 1),2,no change with or without drug,0.56,-0.51,1.12,0.99,inactive
Galntl6,1,no change with or without drug,1.12,1.35,0.34,1.04,inactive
Irs3 (insulin receptor substrate 3),1,no change with or without drug,-1.46,-0.84,-0.9,0.81,inactive
Fbxl21 (F-box and leucine-rich repeat protein 21),1,no change with or without drug,0.67,1.85,-0.45,1,inactive
Emc10 (ER membrane protein complex subunit 10),1,low cell count with doxorubicin only,-2.02,-1.52,-1.12,0.76,active
Tmem38b (transmembrane protein 38B),1,no change with or without drug,1.12,-0.17,1.46,1.04,inactive
"Fos (Fos proto-oncogene, AP-1 transcription factor subunit)",1,no change with or without drug,-0.22,1.52,-1.12,0.92,inactive
Add2 (adducin 2),1,no change with or without drug,0.45,1.18,-0.22,0.98,inactive
FIN14,1,no change with or without drug,-0.67,0.34,-0.79,0.88,inactive
Purb (purine rich element binding protein B),1,no change with or without drug,-0.22,0.17,-0.22,0.92,inactive
"Rfx4 (regulatory factor X, 4 (influences HLA class II expression))",1,no change with or without drug,-0.22,0.67,-0.56,0.92,inactive
"Cyp4v3 (cytochrome P450, family 4, subfamily v, polypeptide 3)",1,no change with or without drug,-0.11,0.34,-0.22,0.93,inactive
"Kcnk2 (potassium channel, subfamily K, member 2)",1,low cell count without drug only,-1.8,-2.36,-0.22,0.78,inactive
Rpgrip1 (retinitis pigmentosa GTPase regulator interacting protein 1),1,low cell count with doxorubicin only,-2.36,-0.51,-2.14,0.73,active
Ext1 (exostosin glycosyltransferase 1),1,no change with or without drug,-0.79,0.84,-1.24,0.87,inactive
Or4c121 (olfactory receptor family 4 subfamily C member 121),1,high cell count without drug only,0.11,2.53,-1.35,0.95,inactive
Proser3 (proline and serine rich 3),1,no change with or without drug,-0.9,-0.51,-0.56,0.86,inactive
Tktl2 (transketolase-like 2),1,no change with or without drug,0,-0.67,0.56,0.94,inactive

Reagents listed above called active:
Gene,reagent no.,combined z-score class,viability z-score with doxorubicin,viability z-score without drug,z-score of drug to no-drug ratio,doxorubicin viability vs non-targeting,activity call
Vmn1r11 (vomeronasal 1 receptor 11),1,low cell count with doxorubicin only,-2.47,-0.84,-2.02,0.72,active
Cngb1 (cyclic nucleotide gated channel beta 1),1,low cell count with doxorubicin only,-2.02,-0.51,-1.69,0.76,active
Emc10 (ER membrane protein complex subunit 10),1,low cell count with doxorubicin only,-2.02,-1.52,-1.12,0.76,active
Rpgrip1 (retinitis pigmentosa GTPase regulator interacting protein 1),1,low cell count with doxorubicin only,-2.36,-0.51,-2.14,0.73,active
